We go through three substances from patent US20060134737A1 (VLAAMS INTERUNIVERSITAIR INSTITUUT VOOR BIOTECHNOLOGIE VZW, published 2006).

Protein sequences, listed by entry. Tags and fused reporters are not part of them. Lines headed by an entry give the natural chain unless they say otherwise; changes in a name come on top. Chains listed by the source or under a name are the forms on record and can include a tag or linker.
UniProt Q9HAU4: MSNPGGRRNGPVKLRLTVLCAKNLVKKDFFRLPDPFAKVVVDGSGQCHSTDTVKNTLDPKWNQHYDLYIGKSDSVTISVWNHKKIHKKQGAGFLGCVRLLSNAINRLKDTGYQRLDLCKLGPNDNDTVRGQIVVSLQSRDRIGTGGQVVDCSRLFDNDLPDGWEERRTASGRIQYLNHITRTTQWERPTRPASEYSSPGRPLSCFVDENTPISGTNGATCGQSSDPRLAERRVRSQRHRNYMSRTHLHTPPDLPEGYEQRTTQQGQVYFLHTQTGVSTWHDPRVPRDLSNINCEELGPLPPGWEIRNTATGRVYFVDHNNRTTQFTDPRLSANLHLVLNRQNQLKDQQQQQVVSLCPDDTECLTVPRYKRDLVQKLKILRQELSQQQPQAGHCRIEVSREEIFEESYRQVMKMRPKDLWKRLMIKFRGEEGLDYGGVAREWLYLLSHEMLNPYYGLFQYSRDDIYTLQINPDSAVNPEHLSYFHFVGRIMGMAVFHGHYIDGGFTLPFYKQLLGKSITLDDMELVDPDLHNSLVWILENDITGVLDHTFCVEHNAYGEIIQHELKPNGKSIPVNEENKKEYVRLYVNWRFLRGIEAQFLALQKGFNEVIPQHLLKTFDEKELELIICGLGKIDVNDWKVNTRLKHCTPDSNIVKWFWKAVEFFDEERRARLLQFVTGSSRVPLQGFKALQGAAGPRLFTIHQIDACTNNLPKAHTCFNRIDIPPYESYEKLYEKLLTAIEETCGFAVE
Flag-tagged Smurf2 deletion mutant lacking the first WW domain (Q9HAU4, form named): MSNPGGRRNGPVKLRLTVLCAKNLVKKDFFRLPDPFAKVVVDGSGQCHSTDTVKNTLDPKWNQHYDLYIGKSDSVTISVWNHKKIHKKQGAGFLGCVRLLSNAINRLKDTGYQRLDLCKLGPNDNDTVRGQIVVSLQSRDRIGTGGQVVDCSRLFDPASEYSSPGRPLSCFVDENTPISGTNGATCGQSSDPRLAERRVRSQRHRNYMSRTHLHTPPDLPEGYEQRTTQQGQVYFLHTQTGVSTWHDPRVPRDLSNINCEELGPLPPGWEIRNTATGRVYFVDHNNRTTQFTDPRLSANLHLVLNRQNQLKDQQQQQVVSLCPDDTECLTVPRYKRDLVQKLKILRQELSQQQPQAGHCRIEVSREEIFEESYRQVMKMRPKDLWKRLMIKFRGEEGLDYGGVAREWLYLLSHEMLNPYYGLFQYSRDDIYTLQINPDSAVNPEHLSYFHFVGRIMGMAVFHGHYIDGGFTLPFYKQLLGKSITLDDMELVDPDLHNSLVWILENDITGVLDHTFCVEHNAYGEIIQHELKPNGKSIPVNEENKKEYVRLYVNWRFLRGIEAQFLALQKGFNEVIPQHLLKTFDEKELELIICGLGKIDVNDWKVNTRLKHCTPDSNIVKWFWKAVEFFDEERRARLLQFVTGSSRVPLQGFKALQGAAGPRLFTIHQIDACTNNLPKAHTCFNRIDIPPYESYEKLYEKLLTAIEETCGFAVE

Experiment [1] has as its target T1, E-tagged murine TRAF2 (pEF6-E-mTRAF2) (murine) (UniProt P39429).
T1 sequence (looked up): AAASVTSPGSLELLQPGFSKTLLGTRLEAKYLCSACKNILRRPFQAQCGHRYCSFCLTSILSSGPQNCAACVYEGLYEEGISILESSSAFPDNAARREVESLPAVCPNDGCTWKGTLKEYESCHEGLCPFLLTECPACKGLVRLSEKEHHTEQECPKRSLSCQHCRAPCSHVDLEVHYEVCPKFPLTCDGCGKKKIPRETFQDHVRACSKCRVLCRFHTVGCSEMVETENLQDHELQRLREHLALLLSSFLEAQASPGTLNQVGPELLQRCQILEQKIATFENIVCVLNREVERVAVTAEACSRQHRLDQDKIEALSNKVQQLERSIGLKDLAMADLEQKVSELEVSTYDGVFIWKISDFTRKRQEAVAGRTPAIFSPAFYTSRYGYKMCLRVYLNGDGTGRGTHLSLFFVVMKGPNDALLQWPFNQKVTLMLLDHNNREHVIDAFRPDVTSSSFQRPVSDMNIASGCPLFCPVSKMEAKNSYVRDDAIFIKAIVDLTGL
Nature of the experiment: co-immunoprecipitation with anti-Flag from HEK293T lysates, anti-E-tag Western blot. On the technique in general: In western blotting, separated proteins are transferred to a membrane and probed.

Experiment [2] has as its target T1, E-tagged murine TRAF2 (pEF6-E-mTRAF2) (murine). The experiment can be described thus: co-immunoprecipitation from HEK293T lysates.
The target is the same in experiment [3]. The experiment can be described thus: co-immunoprecipitation of TNF-R2 with utr-1 from HEK293T lysates with 0, 0.25, 1 or 2 µg E-TRAF2 plasmid; anti-cMyc and anti-E Western blots.
The target is the same in experiment [4]. The experiment can be described thus: co-immunoprecipitation with anti-HA from HEK293T lysates, anti-E-tag Western blot (FIG. 1, Panel B).
The target is the same in experiment [5]. Nature of the experiment: co-immunoprecipitation with anti-HA from HEK293T lysates, anti-E-tag Western blot.

These are yes or no findings as the source states them, for the method shown. In cells and extracts the contact can be indirect. Some entries that bind do so weakly or less than the wild type. Where a sequence is shown, tags or fusion partners need not be part of it.

As to “Flag-tagged Smurf2 deletion mutant lacking the first WW domain (from UniProt Q9HAU4 1-748) (enzyme)”, the binding entry in experiment [1] is reported as “binds”.

“cMyc-tagged Smurf2 (C716G), ligase inactive point mutant (from UniProt Q9HAU4 1-748) (enzyme)”: the binding entry in experiment [2] and in experiment [3] was “binds” each time.

On to “HA-tagged Smurf2 (full length, wild type) (from UniProt Q9HAU4 1-748) (enzyme)”, for which the binding entry in experiment [4] and in experiment [5] was “binds” in each case.
